What all share (experiment): co-IP; cell lysates immunoprecipitated by IgG or anti-NEIL1, NEIL2, MUTYH, APE1 and LIG3 antibodies, then immunoblotted with anti-Sirt3 antibody
(In western blotting, separated proteins are transferred to a membrane and probed.)

Assay [1] concerns the target T1, Endonuclease VIII-like 2 (NEIL2) (human (endogenous in HT-29)) (UniProt Q969S2).
T1 sequence: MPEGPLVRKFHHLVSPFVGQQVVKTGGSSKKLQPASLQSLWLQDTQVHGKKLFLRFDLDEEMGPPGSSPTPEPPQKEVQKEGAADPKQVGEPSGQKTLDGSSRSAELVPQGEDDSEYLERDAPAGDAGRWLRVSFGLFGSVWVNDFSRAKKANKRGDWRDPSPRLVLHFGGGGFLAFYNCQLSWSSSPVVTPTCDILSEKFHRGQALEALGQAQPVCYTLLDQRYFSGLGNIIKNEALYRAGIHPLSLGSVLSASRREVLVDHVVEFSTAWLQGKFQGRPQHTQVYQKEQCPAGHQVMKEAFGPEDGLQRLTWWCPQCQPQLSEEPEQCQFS

Assay [2] deals with T2, DNA ligase 3 (LIG3) (human (endogenous in HT-29)) (UniProt P49916).
T2 sequence: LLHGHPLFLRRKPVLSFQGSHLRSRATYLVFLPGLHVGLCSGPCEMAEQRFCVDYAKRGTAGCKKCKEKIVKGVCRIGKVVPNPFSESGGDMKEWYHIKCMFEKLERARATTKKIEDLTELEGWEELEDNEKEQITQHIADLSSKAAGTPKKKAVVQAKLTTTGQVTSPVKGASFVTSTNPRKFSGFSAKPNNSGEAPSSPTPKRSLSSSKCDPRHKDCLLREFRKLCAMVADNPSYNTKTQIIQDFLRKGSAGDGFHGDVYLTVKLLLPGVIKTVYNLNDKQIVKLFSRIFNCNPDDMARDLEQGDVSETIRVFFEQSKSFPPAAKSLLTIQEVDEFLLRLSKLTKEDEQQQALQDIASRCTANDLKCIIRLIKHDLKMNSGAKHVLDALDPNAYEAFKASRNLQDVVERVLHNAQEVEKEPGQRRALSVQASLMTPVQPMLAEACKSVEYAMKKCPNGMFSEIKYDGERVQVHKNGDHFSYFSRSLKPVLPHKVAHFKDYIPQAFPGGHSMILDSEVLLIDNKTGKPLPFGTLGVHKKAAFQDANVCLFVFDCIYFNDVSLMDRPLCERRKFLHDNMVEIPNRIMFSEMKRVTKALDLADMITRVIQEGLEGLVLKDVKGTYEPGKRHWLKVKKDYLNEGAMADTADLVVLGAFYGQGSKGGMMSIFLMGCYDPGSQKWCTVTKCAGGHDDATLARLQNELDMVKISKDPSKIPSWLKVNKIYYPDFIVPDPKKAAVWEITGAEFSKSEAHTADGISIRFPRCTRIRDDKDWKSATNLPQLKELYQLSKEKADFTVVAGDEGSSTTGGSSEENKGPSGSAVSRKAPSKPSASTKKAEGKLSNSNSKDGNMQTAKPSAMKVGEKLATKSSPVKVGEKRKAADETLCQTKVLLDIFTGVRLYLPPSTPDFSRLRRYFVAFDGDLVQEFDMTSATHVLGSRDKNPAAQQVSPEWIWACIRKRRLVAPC

Assay [3] has as its target T3, mutY DNA glycosylase (MUTYH) (human (endogenous in HT-29)) (UniProt Q9UIF7).
T3 sequence: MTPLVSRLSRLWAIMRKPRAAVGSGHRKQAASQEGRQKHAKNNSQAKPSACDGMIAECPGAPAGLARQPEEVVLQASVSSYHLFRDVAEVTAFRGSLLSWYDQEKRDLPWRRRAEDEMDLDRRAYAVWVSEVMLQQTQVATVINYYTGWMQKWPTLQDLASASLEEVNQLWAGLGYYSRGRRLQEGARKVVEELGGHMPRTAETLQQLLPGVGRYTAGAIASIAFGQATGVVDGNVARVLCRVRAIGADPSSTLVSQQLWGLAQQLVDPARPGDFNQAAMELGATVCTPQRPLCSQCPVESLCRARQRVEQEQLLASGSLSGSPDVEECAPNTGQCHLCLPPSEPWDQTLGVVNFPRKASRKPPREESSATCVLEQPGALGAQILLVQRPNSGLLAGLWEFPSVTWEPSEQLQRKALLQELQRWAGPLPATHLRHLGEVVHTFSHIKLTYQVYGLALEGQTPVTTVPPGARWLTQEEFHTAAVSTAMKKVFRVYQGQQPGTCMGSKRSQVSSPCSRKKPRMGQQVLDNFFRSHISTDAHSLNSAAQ

Drawing on publication PMC9010173, this text covers binding for one substance.

Results are given in words; binding and its absence hold for the method and conditions named. In cells and extracts the contact can be indirect. For part of these data: Binding calls can cover weak binding; strength is not graded here.

Consider “Sirt3 (human (endogenous in HT-29)) (enzyme)”, for which the results for the binding result in assay [1], in assay [2] and in assay [3] were “no binding”, “no binding” and “binds”, respectively.
